Ends that are not written are not given here.
Experiment: peptide made by a vendor
Settings: whole synthesis, HPLC-MS

Substance	purity (crude or final not stated)
IASYFDR	98.187%
VAFGRF	98.026%
GYYLR	98.259%
SYFDRA	98.522%
